Publication PMC11272581
No constants are given. Whether binding was seen depends on the method and setting. In cells and extracts the contact can be indirect. These calls come from enrichment with a bait or labelling near it, and not all partners need be listed.

The chains behind the UniProt entries cited, without tags or fusion partners.
UniProt Q92922: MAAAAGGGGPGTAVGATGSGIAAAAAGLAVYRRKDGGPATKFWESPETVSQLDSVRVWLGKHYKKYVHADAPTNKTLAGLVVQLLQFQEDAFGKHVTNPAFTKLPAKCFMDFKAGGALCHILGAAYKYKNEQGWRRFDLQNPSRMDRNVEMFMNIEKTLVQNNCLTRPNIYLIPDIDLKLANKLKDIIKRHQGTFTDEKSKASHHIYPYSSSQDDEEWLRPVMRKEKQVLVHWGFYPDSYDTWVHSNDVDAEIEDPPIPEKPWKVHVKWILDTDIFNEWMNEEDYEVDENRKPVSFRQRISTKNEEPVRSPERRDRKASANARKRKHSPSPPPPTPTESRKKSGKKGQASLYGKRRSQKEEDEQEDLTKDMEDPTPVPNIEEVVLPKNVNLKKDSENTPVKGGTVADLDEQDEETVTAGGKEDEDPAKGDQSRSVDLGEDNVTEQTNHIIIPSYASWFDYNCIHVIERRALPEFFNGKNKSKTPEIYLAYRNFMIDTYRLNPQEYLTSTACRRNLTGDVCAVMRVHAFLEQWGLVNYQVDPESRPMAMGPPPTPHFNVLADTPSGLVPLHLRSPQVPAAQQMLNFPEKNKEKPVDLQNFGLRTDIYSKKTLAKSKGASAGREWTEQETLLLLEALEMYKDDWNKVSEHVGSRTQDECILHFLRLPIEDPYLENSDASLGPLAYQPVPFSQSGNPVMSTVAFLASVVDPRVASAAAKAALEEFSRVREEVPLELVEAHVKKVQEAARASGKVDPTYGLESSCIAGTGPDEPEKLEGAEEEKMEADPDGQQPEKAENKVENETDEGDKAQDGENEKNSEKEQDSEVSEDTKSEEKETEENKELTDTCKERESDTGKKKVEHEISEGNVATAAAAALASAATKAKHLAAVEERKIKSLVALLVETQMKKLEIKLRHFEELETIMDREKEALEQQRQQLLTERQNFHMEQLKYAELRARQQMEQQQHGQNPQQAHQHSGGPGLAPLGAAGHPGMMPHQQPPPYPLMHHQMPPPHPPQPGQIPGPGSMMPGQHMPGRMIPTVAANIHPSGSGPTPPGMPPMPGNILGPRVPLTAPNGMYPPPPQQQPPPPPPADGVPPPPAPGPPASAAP

Target: T1, argininosuccinate synthase (ASS1) (human (endogenous in HCT116)) (UniProt P00966)
T1 sequence: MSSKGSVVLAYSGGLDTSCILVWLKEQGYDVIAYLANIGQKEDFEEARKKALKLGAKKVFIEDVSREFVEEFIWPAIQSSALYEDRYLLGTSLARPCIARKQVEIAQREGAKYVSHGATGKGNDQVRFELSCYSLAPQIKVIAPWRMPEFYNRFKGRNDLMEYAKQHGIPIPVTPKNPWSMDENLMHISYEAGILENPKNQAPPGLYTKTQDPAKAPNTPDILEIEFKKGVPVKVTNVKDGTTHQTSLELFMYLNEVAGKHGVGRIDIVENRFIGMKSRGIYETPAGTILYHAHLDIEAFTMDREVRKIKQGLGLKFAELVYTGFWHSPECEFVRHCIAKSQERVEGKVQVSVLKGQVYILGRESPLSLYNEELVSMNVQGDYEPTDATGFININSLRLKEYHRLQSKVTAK
Experiment: affinity purification with mass spectrometry; anti-ASS1 immunoprecipitation (Dynabeads Protein G, overnight) of the nuclear fraction (NE-PER kit) of HCT116 cells, control and Dox-treated; LC-MS/MS of the eluate

## SWI/SNF-related, matrix-associated, actin-dependent regulator of chromatin subfamily C member 1 (SMARCC1) (from UniProt Q92922 1-1105)
  binding: binds
